Data taken from article PMC11448502, “Cryo-EM structures of the human P2X1 receptor reveal subtype-specific architecture and antagonism by supramolecular ligand-binding” (Nature Communications, 2024).
The source gives many values for each of these; only a part stands here.

Target: T1, hP2X1 N184A (Homo sapiens, UniProt P51575, N184A)
T1 construct: hP2X1 mRNA that was made from linearized full-length wild-type or mutant pcDNA 3.1x; expressed in transfected cells; host or cells: Xenopus laevis oocytes (mRNA injection)
T1 sequence (P51575 1-399 N184A): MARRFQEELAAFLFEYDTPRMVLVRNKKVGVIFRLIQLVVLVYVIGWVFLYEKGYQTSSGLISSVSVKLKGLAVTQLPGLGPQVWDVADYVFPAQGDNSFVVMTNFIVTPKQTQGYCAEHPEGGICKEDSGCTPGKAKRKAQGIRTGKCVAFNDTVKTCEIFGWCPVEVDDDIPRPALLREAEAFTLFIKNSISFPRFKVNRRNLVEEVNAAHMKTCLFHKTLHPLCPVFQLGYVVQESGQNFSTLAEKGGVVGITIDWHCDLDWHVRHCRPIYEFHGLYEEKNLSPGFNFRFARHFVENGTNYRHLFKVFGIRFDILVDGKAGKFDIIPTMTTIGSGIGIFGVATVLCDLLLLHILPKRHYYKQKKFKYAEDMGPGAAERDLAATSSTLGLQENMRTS
Test: NF449 inhibition dose response (IC50), TEVC in oocytes
Type: cell-based
Details: [NF449] 1.600E-09 M
Method: Oocytes were purchased defolliculated from Ecocyte Bioscience in Barth’s Solution (88 mM NaCl, 1 mM KCl, 0.82 mM MgSO4, 0.33 mM Ca(NO3)2, 0.41 mM CaCl2, 2.4 mM NaHCO3, 5 mM Tris-HCl) supplemented with penicillin (100 U/mL) and streptomycin (100 µg/mL). Xenopus laevis oocytes were then injected with 50 nL of 100 ng/μL hP2X1 mRNA that was made from linearized full-length wild-type or mutant pcDNA 3.1x according to the protocol provided in the mMessage mMachine kit (Invitrogen). Injected oocytes were allowed to express for ~20 hours at 18 °C before recording was performed.
Data acquisition was performed using the Oocyte Clamp OC-725C amplifier and pClamp 8.2 software. Buffers were applied using a gravity fed RSC-200 Rapid Solution Changer that flows at ~5 mL/min. All experiments use Sutter filamented glass 10 cm in length with an inner diameter of 0.69 mm and an outer diameter of 1.2 mm to impale oocytes and clamp the holding voltage at −60 mV. Experiments were recorded in buffer containing 10 mM HEPES (pH 7.4), 140 mM NaCl, 5 mM KCl, 2 mM CaCl2, 2 mM MgCl2, and 10 mM glucose.
To test a dilution series of an antagonist at discrete concentrations, 10 µM ATP (2 mM ATP for K309A only) was first applied to evoke an initial maximum current. […]

SMILES: O=C(Nc1cc(C(=O)Nc2ccc(S(=O)(=O)O)cc2S(=O)(=O)O)cc(C(=O)Nc2ccc(S(=O)(=O)O)cc2S(=O)(=O)O)c1)Nc1cc(C(=O)Nc2ccc(S(=O)(=O)O)cc2S(=O)(=O)O)cc(C(=O)Nc2ccc(S(=O)(=O)O)cc2S(=O)(=O)O)c1 [NF449, 4,4’,4”,4’’’-(carbonylbis(imino-5,1,3-benzenetriylbis(carbonylimino)))tetrakis-benzene-1,3-disulfonic acid]
- Normalized Current: 0.5685
